# Source: paper PMC10117657
# By UniProt entry, the sequences of proteins in these tests, tags left out. Residues count along the entry.
# UniProt Q8IZJ1, residues 27-945: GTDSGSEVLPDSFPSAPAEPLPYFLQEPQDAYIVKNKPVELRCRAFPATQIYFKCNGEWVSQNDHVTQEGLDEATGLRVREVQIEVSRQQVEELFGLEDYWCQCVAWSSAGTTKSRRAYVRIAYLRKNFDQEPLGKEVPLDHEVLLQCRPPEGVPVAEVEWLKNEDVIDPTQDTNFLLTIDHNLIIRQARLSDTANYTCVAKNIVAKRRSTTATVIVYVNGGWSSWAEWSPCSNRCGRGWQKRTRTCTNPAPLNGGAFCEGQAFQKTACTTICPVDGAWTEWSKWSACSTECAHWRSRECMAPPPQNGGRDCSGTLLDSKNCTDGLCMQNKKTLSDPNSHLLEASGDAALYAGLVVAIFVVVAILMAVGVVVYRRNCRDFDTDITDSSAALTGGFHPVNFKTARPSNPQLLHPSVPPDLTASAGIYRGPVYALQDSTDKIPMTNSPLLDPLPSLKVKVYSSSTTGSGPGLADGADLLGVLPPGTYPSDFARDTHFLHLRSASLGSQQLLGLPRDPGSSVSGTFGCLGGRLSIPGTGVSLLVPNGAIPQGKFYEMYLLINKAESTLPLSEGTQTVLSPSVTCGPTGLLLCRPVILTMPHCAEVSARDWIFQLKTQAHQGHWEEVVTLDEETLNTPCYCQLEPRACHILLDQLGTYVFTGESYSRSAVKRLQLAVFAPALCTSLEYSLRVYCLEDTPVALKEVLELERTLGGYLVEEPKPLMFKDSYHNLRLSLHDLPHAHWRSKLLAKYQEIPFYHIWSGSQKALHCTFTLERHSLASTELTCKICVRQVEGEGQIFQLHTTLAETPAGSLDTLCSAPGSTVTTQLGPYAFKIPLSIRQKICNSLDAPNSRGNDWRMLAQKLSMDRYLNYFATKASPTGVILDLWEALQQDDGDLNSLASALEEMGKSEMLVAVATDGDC
# UniProt P06730: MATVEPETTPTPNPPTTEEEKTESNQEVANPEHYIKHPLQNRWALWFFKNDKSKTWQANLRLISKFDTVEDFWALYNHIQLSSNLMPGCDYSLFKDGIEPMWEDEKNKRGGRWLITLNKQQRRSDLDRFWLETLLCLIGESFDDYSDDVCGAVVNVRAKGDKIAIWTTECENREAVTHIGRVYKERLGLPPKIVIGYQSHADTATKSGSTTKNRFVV
# UniProt P16520: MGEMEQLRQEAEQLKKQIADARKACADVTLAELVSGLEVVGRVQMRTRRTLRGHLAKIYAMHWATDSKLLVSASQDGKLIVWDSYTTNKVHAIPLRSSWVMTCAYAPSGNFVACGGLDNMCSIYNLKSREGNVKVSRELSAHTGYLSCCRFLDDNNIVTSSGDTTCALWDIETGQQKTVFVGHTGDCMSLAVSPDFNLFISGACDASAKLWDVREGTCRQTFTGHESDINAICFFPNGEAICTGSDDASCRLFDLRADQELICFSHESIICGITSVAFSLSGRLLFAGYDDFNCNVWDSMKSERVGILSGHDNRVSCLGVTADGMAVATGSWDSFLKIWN
# No constants are given. Whether binding was seen depends on the method and setting. Binding seen in cells or lysates may run through a third protein. A yes stands for co-enrichment or nearness to the bait. Other partners may have been found.
# B1: PPP2R2D (endogenous, HEK293T) (protein, UniProt Q66LE6 1-453)
# chain: MAGAGGGGCPAGGNDFQWCFSQVKGAIDEDVAEADIISTVEFNYSGDLLATGDKGGRVVIFQREQENKSRPHSRGEYNVYSTFQSHEPEFDYLKSLEIEEKINKIRWLPQQNAAHFLLSTNDKTIKLWKISERDKRAEGYNLKDEDGRLRDPFRITALRVPILKPMDLMVEASPRRIFANAHTYHINSISVNSDHETYLSADDLRINLWHLEITDRSFNIVDIKPANMEELTEVITAAEFHPHQCNVFVYSSSKGTIRLCDMRSSALCDRHSKFFEEPEDPSSRSFFSEIISSISDVKFSHSGRYMMTRDYLSVKVWDLNMESRPVETHQVHEYLRSKLCSLYENDCIFDKFECCWNGSDSAIMTGSYNNFFRMFDRDTRRDVTLEASRESSKPRASLKPRKVCTGGKRRKDEISVDSLDFNKKILHTAWHPVDNVIAVAATNNLYIFQDKIN
# B2: CDC37 (endogenous, HEK293T) (protein, UniProt Q16543 1-378)
# chain: MVDYSVWDHIEVSDDEDETHPNIDTASLFRWRHQARVERMEQFQKEKEELDRGCRECKRKVAECQRKLKELEVAEGGKAELERLQAEAQQLRKEERSWEQKLEEMRKKEKSMPWNVDTLSKDGFSKSMVNTKPEKTEEDSEEVREQKHKTFVEKYEKQIKHFGMLRRWDDSQKYLSDNVHLVCEETANYLVIWCIDLEVEEKCALMEQVAHQTIVMQFILELAKSLKVDPRACFRQFFTKIKTADRQYMEGFNDELEAFKERVRGRAKLRIEKAMKEYEEEERKKRLGPGGLDPVEVYESLPEELQKCFDVKDVQMLQDAISKMDPTDAKYHMQRCIDSGLWVPNSKASEAKEGEEAGPGDPLLEAVPKTGDEKDVSV
# Molecular target: Flag-UNC5B (human) (UniProt Q8IZJ1)
# Experiment: affinity purification with mass spectrometry; HEK293T cells transfected with control vector or Flag-UNC5B for 48 h; samples collected with anti-Flag antibody; LC-MS/MS
row,binding,Molecule
1,binds,"EIF4E (endogenous, HEK293T) (from UniProt P06730 1-217)"
2,binds,"GNB3 (endogenous, HEK293T) (from UniProt P16520 1-340)"
3,binds,B1
4,binds,B2
